Experimental data reported in patent publication US20190051326A1, “Ionic Liquid, Lubricant, and Magnetic Recording Medium” (priority 2016, published 2019).

Experiment: Tape durability test (friction coefficient, still durability, shuttle durability)
Conditions: for Still durability after heating/min / Friction coefficient after 100 runs after heating / Shuttle durability after heating/times: after heating test 10 minutes at 100° C.
[1] = −5° C., decay time of output by −3 dB in paused state
[2] = −5° C., shuttles until output reduced by 3 dB

Compound	Still durability/min (40° C., 30% RH) [min]	Still durability after heating/min (40° C., 30% RH) [min]	Friction coefficient after 100 runs (40° C., 90% RH)	Shuttle durability/times (40° C., 90% RH) [times]	Friction coefficient after 100 runs after heating (40° C., 90% RH)	Shuttle durability after heating/times (40° C., 90% RH) [times]	Friction coefficient after 100 runs (−5° C.)	Friction coefficient after 100 runs after heating (−5° C.)	Shuttle durability after heating/times (−5° C.) [times]	Still durability after heating/min (−5° C.) [min]	Still durability/min [1] [min]	Shuttle durability/times [2] [times]	magnetic tape durability after the heating test (in words) (after heating test)
nonafluorobutanesulfonic acid-1-octadecyl-2-heptadecylimidazolium [Comparative Example 6A]	>60	>60	0.22	>200	0.23	>200	0.20	0.21	>200	>60	>60	>200	
pentadecafluorooctanoic acid octadecylammonium [Comparative Example 5A]	>60	16	0.25	>200	0.51	23	0.21	0.45	30	12	>60	>200	considerably deteriorated in the magnetic tape durability after the heating test
heptadecafluorooctanesulfonic acid-6-octadecyl-1,8-diazabicyclo[5.4.0]-7-undecenium [Comparative Example 3A]	>60	>60	0.26	>200	0.26	>200	0.22	0.24	>200	>60	>60	>200	
CCCCCCCCCCCCCCCCCCC1CCCCN2CCCN=C12.O=S1(=O)NS(=O)(=O)C(F)(F)C(F)(F)C1(F)F (stereo not shown) [Comparative Example 4A, hexafluorocyclopropane-1,3-bis(sulfonyl)imide-6-octadecyl-1,8-diazabicyclo[5.4.0]-7-undecenium]	>60	>60	0.26	>200	0.27	>200	0.23	0.24	>200	>60	>60	>200	
CCCCCCCCCCCCCCCCCCC1CCCCN2CCC[N+](CCCO)=C12.O=S(=O)([N-]S(=O)(=O)C(F)(F)C(F)(F)C(F)(F)C(F)(F)F)C(F)(F)C(F)(F)C(F)(F)C(F)(F)F (stereo not shown) [Example 5A, bis(nonafluorobutanesulfonyl)imide-6-octadecyl-8-3′-hydroxypropyl-1,8-diazabicyclo[5.4 0.0]-7-undecenium]	>60	>60	0.26	>200	0.27	>200	0.24	0.25	>200	>60	>60	>200	
CCCCCCCCCCCCCCCCCC[N+]1(CCCO)CCCC1.O=S(=O)([N-]S(=O)(=O)C(F)(F)C(F)(F)C(F)(F)C(F)(F)F)C(F)(F)C(F)(F)C(F)(F)C(F)(F)F [Example 3A, bis(nonafluorobutanesulfonyl)imide-N-3′hydroxypropyl-N-octadecylpyrrolidinium]	>60	>60	0.26	>200	0.28	>200	0.22	0.25	>200	>60	>60	>200	
CCCCCCCCCCCCCC[N+](C)(C)CCCO.O=S(=O)([N-]S(=O)(=O)C(F)(F)C(F)(F)C(F)(F)C(F)(F)F)C(F)(F)C(F)(F)C(F)(F)C(F)(F)F [Example 9A, bis(nonafluorobutanesulfonyl)imide-N-3′hydroxypropyl-N,N-dimethyltetradecylammonium]	>60	>60	0.25	>200	0.26	>200	0.24	0.24	>200	>60	>60	>200	
